This experiment has as its target T1, FLAG-fused FKBP11 (FKBP11-FLAG) (UniProt Q9D1M7).
T1 sequence: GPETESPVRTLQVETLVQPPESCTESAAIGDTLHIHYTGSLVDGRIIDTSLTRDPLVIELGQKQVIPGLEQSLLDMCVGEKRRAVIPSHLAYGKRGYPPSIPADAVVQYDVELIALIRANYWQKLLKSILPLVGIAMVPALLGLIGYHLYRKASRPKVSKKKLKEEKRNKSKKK
The experiment in a line: co-IP; lysate of MC3T3 osteoblast cells co-expressing IFITM5 and FKBP11-FLAG, grown without 2BP; anti-FLAG M2 agarose, 4 C, 2 h; eluted with 3xFLAG peptide; blot with anti-IFITM5 and anti-FLAG.

The values below come from article PMC3776769.

No constants are given. Whether binding was seen depends on the method and setting. In cells and extracts the contact can be indirect. Some results given as binding are weak or reduced against the parent protein; the word gives no strength. Where a sequence is shown, tags or fusion partners need not be part of it.

B1: wild-type IFITM5 (IFITM5-WT), S-palmitoylated form (protein, UniProt O88728 1-134)
chain: MDTSYPREDPRAPSSRKADAAAHTALSMGTPGPTPRDHMLWSVFSTMYLNLCCLGFLALVHSVKARDQKMAGNLEAARQYGSKAKCYNILAAMWTLVPPLLLLGLVVTGALHLSKLAKDSAAFFSTKFDEEDYN
modifications: S-palmitoylated at Cys86 plus Cys52 and/or Cys53 (fully palmitoylated)
With B1, the binding entry is listed as “binds”.

B2: IFITM5-C52A/C53A (protein, UniProt O88728 1-134)
chain: MDTSYPREDPRAPSSRKADAAAHTALSMGTPGPTPRDHMLWSVFSTMYLNLAALGFLALVHSVKARDQKMAGNLEAARQYGSKAKCYNILAAMWTLVPPLLLLGLVVTGALHLSKLAKDSAAFFSTKFDEEDYN
modifications: partially palmitoylated at Cys86
Regarding B2, the binding entry is on record as “no binding”.

B3: IFITM5-C86A (protein, UniProt O88728 1-134)
chain: MDTSYPREDPRAPSSRKADAAAHTALSMGTPGPTPRDHMLWSVFSTMYLNLCCLGFLALVHSVKARDQKMAGNLEAARQYGSKAKAYNILAAMWTLVPPLLLLGLVVTGALHLSKLAKDSAAFFSTKFDEEDYN
modifications: partially palmitoylated at Cys52 and/or Cys53
As for B3, the binding result is recorded as “binds”.

B4: IFITM5-C52A/C53A/C86A (Cys-less) (protein, UniProt O88728 1-134)
chain: MDTSYPREDPRAPSSRKADAAAHTALSMGTPGPTPRDHMLWSVFSTMYLNLAALGFLALVHSVKARDQKMAGNLEAARQYGSKAKAYNILAAMWTLVPPLLLLGLVVTGALHLSKLAKDSAAFFSTKFDEEDYN
Take B4: the binding entry is given as “no binding”.
